In PMC2243017:
Results are given in words; binding and its absence hold for the method and conditions named. For some of these results: In cells and extracts the contact can be indirect. Some results given as binding are weak or reduced against the parent protein; the word gives no strength. For some of these results: Sequences can lack the tags named with a protein.

Sequences of proteins named here, by UniProt entry; tags and fusion partners are left off. A change or cut given only in a name is not applied to a line headed by its entry.
UniProt Q86Y07: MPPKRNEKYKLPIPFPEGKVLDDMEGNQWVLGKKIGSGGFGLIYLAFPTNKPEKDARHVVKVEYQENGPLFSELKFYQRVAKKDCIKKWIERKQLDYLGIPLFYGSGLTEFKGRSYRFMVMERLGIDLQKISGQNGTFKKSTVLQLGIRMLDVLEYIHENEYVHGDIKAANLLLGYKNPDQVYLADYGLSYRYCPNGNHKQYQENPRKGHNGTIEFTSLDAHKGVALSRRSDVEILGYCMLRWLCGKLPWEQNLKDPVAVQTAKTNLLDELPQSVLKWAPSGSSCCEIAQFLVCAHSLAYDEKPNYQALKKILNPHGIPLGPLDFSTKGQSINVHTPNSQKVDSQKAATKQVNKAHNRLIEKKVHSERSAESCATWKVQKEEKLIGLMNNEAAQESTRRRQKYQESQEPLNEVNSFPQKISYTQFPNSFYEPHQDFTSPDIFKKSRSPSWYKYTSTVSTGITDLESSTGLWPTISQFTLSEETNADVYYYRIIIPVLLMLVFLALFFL
UniProt P45983: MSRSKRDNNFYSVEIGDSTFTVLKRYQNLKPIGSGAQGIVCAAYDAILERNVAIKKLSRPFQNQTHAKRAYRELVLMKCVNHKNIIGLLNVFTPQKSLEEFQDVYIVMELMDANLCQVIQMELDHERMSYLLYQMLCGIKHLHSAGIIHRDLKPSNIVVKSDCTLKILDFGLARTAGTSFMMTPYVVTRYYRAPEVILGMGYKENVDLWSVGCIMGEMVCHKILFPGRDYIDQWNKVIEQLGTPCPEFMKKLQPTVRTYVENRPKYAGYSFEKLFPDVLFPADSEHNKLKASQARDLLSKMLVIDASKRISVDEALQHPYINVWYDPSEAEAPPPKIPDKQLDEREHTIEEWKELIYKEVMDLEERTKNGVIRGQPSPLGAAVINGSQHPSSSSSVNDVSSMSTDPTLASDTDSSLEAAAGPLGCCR

Columns and labels:
[1] = target: T1, GST-JIP1 (283-660), bacterially expressed (UniProt Q9WVI9); assay: pull-down; 2 µg purified bacterial GST-JIP1 fusion protein incubated at 4°C for 2 h with 35S-labeled in vitro translated VRK2A in 50 mM Tris pH 7.4, 250 mM NaCl, 0.1% Triton X-100, 5 mM EDTA, 2 mM DTT; only the target purified
T1 sequence: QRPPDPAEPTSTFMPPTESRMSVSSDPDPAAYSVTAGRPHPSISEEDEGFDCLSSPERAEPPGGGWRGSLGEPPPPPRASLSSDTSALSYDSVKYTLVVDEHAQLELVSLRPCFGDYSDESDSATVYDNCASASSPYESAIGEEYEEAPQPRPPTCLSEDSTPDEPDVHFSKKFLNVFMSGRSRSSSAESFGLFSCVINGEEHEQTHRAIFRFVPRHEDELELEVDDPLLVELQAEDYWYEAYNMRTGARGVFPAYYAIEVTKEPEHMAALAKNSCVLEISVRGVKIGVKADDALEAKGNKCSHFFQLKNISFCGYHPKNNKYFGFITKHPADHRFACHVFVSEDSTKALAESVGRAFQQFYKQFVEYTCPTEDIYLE

[2] = target: T2, GST-JIP1 full-length fusion protein (UniProt Q9WVI9); assay: SEC; extracts of Cos1 cells transfected with pGST-JIP1 alone or with pHA-TAK1, pFlag-TAB1, pFlag-MKK7, pFlag-JNK, without or with pCEFL-HA-VRK2A or pCEFL-HA-VRK2B, fractionated on Superose 12 10/300 GL (50 mM Tris-HCl pH 7.5, 1 mM EDTA, 100 mM KCl); fractions analysed by western blot
T2 sequence: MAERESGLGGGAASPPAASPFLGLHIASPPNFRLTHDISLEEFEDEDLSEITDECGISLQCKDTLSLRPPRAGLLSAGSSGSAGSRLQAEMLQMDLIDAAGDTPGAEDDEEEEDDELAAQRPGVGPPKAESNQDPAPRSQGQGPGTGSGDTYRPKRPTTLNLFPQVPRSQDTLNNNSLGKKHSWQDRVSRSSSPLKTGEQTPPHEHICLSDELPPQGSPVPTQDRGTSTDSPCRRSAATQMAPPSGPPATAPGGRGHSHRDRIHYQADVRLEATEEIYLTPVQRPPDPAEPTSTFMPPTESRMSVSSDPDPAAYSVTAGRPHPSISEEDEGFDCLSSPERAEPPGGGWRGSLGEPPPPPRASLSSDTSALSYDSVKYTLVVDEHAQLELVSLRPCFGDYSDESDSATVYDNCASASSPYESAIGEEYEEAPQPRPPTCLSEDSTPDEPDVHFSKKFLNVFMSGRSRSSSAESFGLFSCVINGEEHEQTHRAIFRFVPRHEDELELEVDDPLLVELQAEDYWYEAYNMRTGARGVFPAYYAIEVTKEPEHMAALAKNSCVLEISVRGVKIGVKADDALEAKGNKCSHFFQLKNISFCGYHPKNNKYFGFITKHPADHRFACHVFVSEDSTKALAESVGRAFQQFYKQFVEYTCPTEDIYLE

[3] = target: GST-VRK2A (mammalian expression) (human) (UniProt Q86Y07); assay: pull-down; lysates of transfected Cos1 cells (48 h; 20 mM Tris-HCl pH 7.4, 137 mM NaCl, 2 mM EDTA, 1% Triton-X100) mixed with glutathione-Sepharose beads 12 h at 4°C to bring down the GST fusion protein; associated transfected or endogenous proteins detected by western blot
[4] = target: T2, GST-JIP1 full-length fusion protein; assay: as above

Row | Substance | binding [1] | binding [2] | binding [3] | binding [4]
1 | VRK2A transcribed-translated in vitro, 35S-labelled (from UniProt Q86Y07-1 1-508) (enzyme) | binds | – | – | –
2 | Flag-JNK (from UniProt P45983 1-427) (enzyme) | – | binds | no binding | binds
